Measured values published in patent US20250325793A1, “INTRACALVARIOSSEOUS DRUG ADMINISTRATION DEVICE FOR DELIVERING DRUG BY BYPASSING BLOOD-BRAIN BARRIER” (GACHON UNIVERSITY OF INDUSTRY-ACADEMIC COOPERATION …, priority 2023, published 2025).

Settings: rat, in vivo

AUCISF of the ICO administration group compared with the IV administration group: relatively higher
AUCplasma of the ICO administration group compared with the IV administration group: relatively lower
Compound: COc1cc2c(cc1OC)C(=O)C(CC1CCN(Cc3ccccc3)CC1)C2 (centres unmarked) [DPZ, donepezil]
